From PubChem BioAssay AID720504 (National Center for Advancing Translational Sciences (NCATS), 2013)
Where “and” joins values, the source holds several entries; their conditions need not be identical. Equal values may be shown once. About 10,000 (2.8%) of roughly 360,000 compounds were called active. Inconclusive results, whose numbers are uncertain, are shown with a selection of clear calls. Calls follow the shape of the dose curve; as a rule, active = well fitted inhibition curve with a large enough effect; inconclusive = small, poorly fitted or top-dose-only effect; inactive = flat fitted curve, though single readings scatter. A potency beside an inconclusive call is a rough fit, not a confirmed value.

Sequences of proteins named here, by UniProt entry; tags and fusion partners are left off.
UniProt P53350, whole entry, looked up: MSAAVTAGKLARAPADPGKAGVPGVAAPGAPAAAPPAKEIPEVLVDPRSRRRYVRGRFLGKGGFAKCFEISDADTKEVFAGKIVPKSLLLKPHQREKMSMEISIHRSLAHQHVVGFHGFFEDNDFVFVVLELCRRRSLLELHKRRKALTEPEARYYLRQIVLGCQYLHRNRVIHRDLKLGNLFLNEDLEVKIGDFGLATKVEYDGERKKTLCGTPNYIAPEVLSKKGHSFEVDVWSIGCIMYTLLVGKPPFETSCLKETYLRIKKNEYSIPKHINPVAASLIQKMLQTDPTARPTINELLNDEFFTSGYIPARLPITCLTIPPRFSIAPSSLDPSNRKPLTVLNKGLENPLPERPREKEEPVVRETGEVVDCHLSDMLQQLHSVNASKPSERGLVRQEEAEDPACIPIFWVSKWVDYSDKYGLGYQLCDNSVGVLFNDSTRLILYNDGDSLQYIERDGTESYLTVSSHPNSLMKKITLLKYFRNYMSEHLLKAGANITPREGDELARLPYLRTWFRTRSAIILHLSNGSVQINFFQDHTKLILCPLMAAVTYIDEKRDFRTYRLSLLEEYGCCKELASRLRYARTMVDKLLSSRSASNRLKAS

Target: Serine/threonine-protein kinase PLK1 (Homo sapiens) (UniProt P53350)
Test: qHTS for Inhibitors of PLK1-PDB (polo-like kinase 1 - polo-box domain): Primary Screen; also: nearly all actives have a fitted effect of over 65% in size; as to max response, negative = inhibition: series mostly up to about 57 µM
Conditions: Plk1 PBD binding of FITC phosphopeptide, fluorescence polarization
% is scaled to controls: 0 for no effect and ±100 for the full control effect; potency is read from the fitted curve at half-maximal effect.

Compound	Potency	max response, negative = inhibition
CCOC(=O)C(C)Sc1nc(=O)n2ccccc2n1 (stereo not given)	active: 23.8 µM	–
Cc1sc(NC(=O)c2ccc(Cl)s2)c(C(N)=O)c1C	inconclusive: 16.8 µM [inhibitor, partial curve]	–
O=Cc1c(Cl)nc2ccccn2c1=O	inconclusive: 26.7 µM [inhibitor, partial curve]	–
CC1(c2ccccc2)NC(=O)N(N)C1=O (stereo not given)	inconclusive: 42.3 µM [inhibitor, partial curve]	–
CC1=NN(c2ccccc2)C(=O)/C1=C/C=C/c1ccccc1	inconclusive: 10.6 µM [inhibitor, partial curve]	–
O=C(O)c1[nH]c2ccccc2c1C(c1cccc(O)c1)c1c(C(=O)O)[nH]c2ccccc12	inconclusive: 29.9 µM [inhibitor, single point]	–
COCCn1c(C)cc(C2=NNC(=Nc3ccc(OC)cc3)SC2)c1C	inconclusive: 37.7 µM [inhibitor, single point]	–
Cc1ccc(C2(C)NC(=O)N(CC(=O)Nc3cccnc3Cl)C2=O)cc1 (stereo not given)	–	inactive: -20.1%
Cc1cc(C)cc(C(=O)n2cnnc2N)c1	inconclusive: 18.9 µM [inhibitor, partial curve]	–
CCOC(=O)c1[nH]c2cc3c(cc2c1NC(=O)CN1CCN(CCO)CC1)OCO3	–	inactive: 0.891%
C/C(=N\NS(=O)(=O)c1ccc(C)c([N+](=O)[O-])c1)c1cc2ccccc2o1	inconclusive: 26.7 µM [inhibitor, partial curve]	–
Cc1ccc(NC(=O)CCc2ccc(C)o2)c(Br)c1	inconclusive: 21.2 µM [inhibitor, partial curve]	–
Cc1ccc(SCC(=O)N(C)CC(=O)Nc2cccc(F)c2)c(C)c1	inconclusive: 29.9 µM [inhibitor, partial curve]	–
CCCCN1C[C@H](CSC)[C@@H](CC(=O)Nc2ccc(Br)cc2)C1=O	–	inactive: -9.96%
Nn1c(SCC(=O)Nc2ccc3c(c2)OCO3)nnc1C(F)(F)F	inconclusive: 21.2 µM [inhibitor, single point]	–
Fc1ccc(-[n+]2nc(Nc3ccccc3)sc2-c2cccc(Cl)c2Cl)cc1	inconclusive: 23.8 µM [inhibitor, partial curve]	–
CCC(CC)c1nnc(NC(=O)c2c(-c3ccccc3)noc2C)s1	inconclusive: 26.7 µM [inhibitor, partial curve]	–
CC(=O)CSc1nc2ccccc2o1	–	inconclusive: -36.1% [inhibitor]
Cc1cc(C)n2c(SCC(=O)N(CCC#N)c3ccc4c(c3)OCCO4)nnc2n1	inconclusive: 33.6 µM [inhibitor, partial curve]	–
Cc1nc(NC(=S)NC(=O)c2cncc(Br)c2)ccc1Br	active: 21.2 µM	–
COc1ccc(-c2nn(-c3ccccc3)cc2/C=N/NC(=O)c2ccc(Br)o2)cc1	inconclusive: 33.6 µM [inhibitor, single point]	–
CC1(C(=O)NS(=O)(=O)c2ccccc2)CCN1C(=O)CCc1ccc(Cl)cc1Cl (stereo not given)	–	inactive: -0.556%
CCOC(=O)c1nnc(-c2ccccc2)nc1Oc1ccccc1Cl	inconclusive: 37.7 µM [inhibitor, single point]	–
O=C(O)c1ccc2c(=O)n(-c3ccccc3)c(=S)[nH]c2c1	–	inactive: 5.46%

Compound	Potency	max response, negative = inhibition
COc1cc(/C=C(/C#N)c2nc3ccccc3[nH]2)ccc1OCc1ccc(C(=O)O)o1	inconclusive: 67 µM [inhibitor, partial curve]	–
Cc1cc(C)cc(OCC(=O)Nc2ccccc2C(=O)N2CCOCC2)c1	inconclusive: 23.8 µM [inhibitor, single point]	–
CC(=O)Nc1ccc(S(=O)(=O)Oc2ccc(C(=S)N3CCCCC3)cc2)cc1	inconclusive: 29.9 µM [inhibitor, partial curve]	–
CCC(=O)N=c1ccn(C2=Nc3ccccc3NC2=C(C#N)C#N)cc1	–	inactive: -6.78%
CCOC(=O)c1c(C)oc2c1c(CN1CCN(CCO)CC1)c(O)c1ccccc12	active: 1.68 µM	–
O=C(Nc1ccccc1)C1C2/C=C\CCCCC21 (stereo not given)	active: 26.7 µM	–
O=C(C(=O)N1CCN(c2ccccc2F)CC1)c1cn(CC(=O)N2CCOCC2)c2ccccc12	active: 23.8 µM	–
O=C(O)c1cc(Sc2ccc(Br)cc2)nc2ccccc12	inconclusive: 23.8 µM [inhibitor, partial curve]	–
CCOc1ccc(CCNC(=O)c2c(C)nn(-c3ccccc3)c2Cl)cc1OCC	–	inactive: 2.68%
COc1ccc(NC(=S)NCc2cccs2)cc1	inconclusive: 26.7 µM [inhibitor, partial curve]	–
CC(C)(C)c1ccc(C(=O)Nc2sc3c(c2C(=O)O)CCC3)cc1	inconclusive: 21.2 µM [inhibitor, single point]	–
CCCc1nnc(NC(=O)CN2C(=O)c3ccccc3S2(=O)=O)s1	inconclusive: 26.7 µM [inhibitor, single point]	–
Cc1nnc2n(c1=O)N=C(c1ccc(Cl)cc1)CS2	inconclusive: 23.8 µM [inhibitor, single point]	–
Cc1ccc(CNC(=O)c2cc3c(s2)CS(=O)(=O)C3)cc1	–	inconclusive: -30.7% [inhibitor]
O=C(O)COc1ccccc1C=NNc1ccc([N+](=O)[O-])cc1S(=O)(=O)Nc1ccc(Cl)cc1	active: 23.8 µM	–
CCn1c(SCC(=O)Nc2ccc3c(c2)oc2ccccc23)nnc1-c1ccc(N)cc1	–	inactive: 2.56%
O=[N+]([O-])c1ccc(N2CCN(C(=S)Nc3ccc(F)cc3F)CC2)cc1	inconclusive: 33.6 µM [inhibitor, single point]	–
O=C(O)c1cc(-c2ccco2)nc2cc3ccccc3cc12	inconclusive: 18.9 µM [inhibitor, partial curve]	–
CCCCCn1cnc2c(=S)nc(N)[nH]c21	inconclusive: 23.8 µM [inhibitor, partial curve]	–
CCOC(=O)C1C(=O)CC(=O)C(C(=O)OCC)C1c1ccc(O)cc1 (stereo not given)	–	inactive: -2.65%
Cc1cc(C)n(-c2cc(-c3ccccc3)nc(C)n2)n1	active: 18.9 µM	–
CCOC(=O)c1cc(-c2ccccc2)sc1NC(=O)c1ccc(OC)c(OC)c1	active: 4.74 µM	–
CC(C)(C)Cc1nnc(NC(=O)CCc2ccccc2)s1	inconclusive: 7.52 µM [inhibitor, partial curve]	–
COc1cc(/C=C2\SC(c3ccc(C)cc3)=NC2=O)ccc1O	–	inactive: -23.8%

Compound	Potency	max response, negative = inhibition
COc1ccc(OCC(=O)N/N=C2\CCCCc3ccccc32)cc1	active: 10.6 µM	–
O=C1N[C@H](Cc2ccccc2)COC(=O)[C@H](Cc2ccc(F)cc2)C/C=C\C[C@H]1CC(=O)N(CCO)Cc1ccccc1	–	inactive: -6.08%
CCN(CC)c1ccc(NC(=O)c2ccccc2Br)cc1S(=O)(=O)Nc1ccccc1OC	active: 1.5 µM	–
CC(=O)Nc1ccc(C(=O)N/N=C/c2ccccc2OCc2ccccc2)cc1	inconclusive: 21.2 µM [inhibitor, single point]	–
Cc1ccc(C)c(C(=O)CSc2nnnn2-c2cccnc2)c1	inconclusive: 6.7 µM [inhibitor, full curve, poor fit]	–
Cc1cc(C(=O)Nc2ccc(Cl)cc2)c(C)n1Cc1cccs1	–	inconclusive: -30% [inhibitor]
COc1cc(/C=C(\C#N)C(=O)Nc2cccc(C(=O)O)c2)ccc1OCc1ccc(C)cc1	inconclusive: 37.7 µM [inhibitor, single point]	–
O=C(Nc1c(-c2ccccc2)nc2ccc(Cl)cn12)c1cccs1	inconclusive: 29.9 µM [inhibitor, partial curve]	–
CC(C)c1nc2ccccc2c2nnc(SCC(=O)NCc3ccco3)n12	active: 29.9 µM	–
O=C(O)C1=CC[C@@H](c2ccc(Cl)cc2)N(S(=O)(=O)c2ccc(Cl)cc2)[C@H]1c1ccc(Br)cc1	active: 26.7 µM	–
COc1ccc(CNC(=O)C(C#N)c2nc3ccccc3nc2N2CCCC2)cc1 (stereo not given)	inconclusive: 5.32 µM [inhibitor, partial curve]	–
O=C(Nc1ccccc1SC(=O)c1ccccc1)c1ccccc1	active: 4.23 µM	–
CCOc1ccc(NS(=O)(=O)c2ccc(NC(C)=O)c(OC)c2)cc1	–	inactive: -1.19%
COc1ccc(CNS(=O)(=O)CCNC(=O)c2ccccc2)cc1	–	inactive: -11.5%
COc1cccc2c1C(=O)c1c(O)c3c(c(O)c1C2=O)C[C@@](O)(C(=O)CO)C[C@@H]3OC1CC(N)C(O)C(C)O1 (stereo not given in full)	inconclusive: 13.4 µM [inhibitor, partial curve]	–
O=C(Nc1ccc(Nc2ccccc2)cc1)c1ccco1	–	inactive: -6.56%
COc1ccc(N(CC(=O)NCc2ccc(F)cc2)S(=O)(=O)c2c(C)n[nH]c2C)cc1	–	inconclusive: -4.88% [inhibitor]
CCNC(=O)COc1ccc(-c2ccccc2)cc1	inconclusive: 13.4 µM [inhibitor, partial curve]	–
C/C(N)=C(/C#N)C(=O)COC(=O)c1cc(C)n(-c2ccc(F)cc2)c1C	–	inactive: -6.06% and inactive: -1.04%
COCCOC(=O)c1[nH]c2c(c1C)C(=O)CC(c1cc(OC)ccc1OC)C2 (stereo not given)	–	inconclusive: -30.6% [inhibitor]
COc1cc(/C=C(\C#N)c2nc3ccc(C)cc3[nH]2)cc([N+](=O)[O-])c1O	inconclusive: 37.7 µM [inhibitor, single point]	–
CCOc1cc(Br)cc(/C=C2\SC(=Nc3ccccc3)NC2=O)c1O	inconclusive: 21.2 µM [inhibitor, partial curve]	–

Rewritten bar-delimited: part of the list above.
Compound | Potency | max response, negative = inhibition
COc1ccc(OCC(=O)N/N=C2\CCCCc3ccccc32)cc1 | active: 10.6 µM | –
COc1ccc(CNS(=O)(=O)CCNC(=O)c2ccccc2)cc1 | – | inactive: -11.5%
COc1cc(/C=C(\C#N)c2nc3ccc(C)cc3[nH]2)cc([N+](=O)[O-])c1O | inconclusive: 37.7 µM [inhibitor, single point] | –
